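Merkel cell carcinoma cell lines (MCC-26, WaGa, MKL-1, MKL-2) were scored for viability by CellTiter-Glo luminescence after 72 hours of compound exposure.
Dose-response series of 8 or 11 points, topping out at 44.8 µM.
The number is a fitted potency (AC50, nM) for loss of viability; a lower value means a more potent compound.
Calls follow curve shape: inconclusive marks small, poorly fitted or top-dose-only inhibition, while active requires a well-fitted curve with a large effect.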

Values are in nM.
Every entry below has the call inconclusive.
These entries are mostly ones the record files as inconclusive; other results of the assay are not listed here.
A potency from a partial, single-point or poor curve is only a rough figure.
Some entries filed as inconclusive have a full curve.
An entry listed twice with the same setting is a separate test.

With COC1=CC(=O)C[C@@H](C)[C@]12Oc1c(Cl)c(OC)cc(OC)c1C2=O [UISO] the assay gave potency 26608 nM (inhibitor, single point). COC1=CC(=O)C[C@@H](C)[C@]12Oc1c(Cl)c(OC)cc(OC)c1C2=O [MKL-1] read potency 23715 nM (inhibitor, single point). C[C@@H]1O[C@@H](O[C@@H]2C=C3CC[C@@H]4[C@@H](CC[C@]5(C)[C@H](c6ccc(=O)oc6)CC[C@@]45O)[C@@]3(C)CC2)[C@H](O)[C@H](O)[C@H]1O [MCC-26] read potency 46.9 nM (inhibitor, full curve). For C[C@@]12C(=O)OC(=O)[C@]1(C)C1CCC2O1 [WaGa] the result was potency 1189 nM (inhibitor, full curve). With C[C@@]12C(=O)OC(=O)[C@]1(C)C1CCC2O1 [MKL-2] the assay gave potency 2114 nM (inhibitor, full curve, poor fit). For CC(C)N[C@@H]1CCn2c(=O)[nH]c3cccc(c32)[C@@H]1O [MKL-2] the result was potency 26350 nM (inhibitor, single point). CC(C)N[C@@H]1CCn2c(=O)[nH]c3cccc(c32)[C@@H]1O [MKL-1] gave potency 525.8 nM (inhibitor, full curve, poor fit). Result for COC(=O)C1=C(C)NC(C)=C(C(=O)OCCN(C)Cc2ccccc2)C1c1cccc([N+](=O)[O-])c1 (stereo not shown) [MKL-2] was potency 18837 nM (inhibitor, partial curve, poor fit).

With COC(=O)C1=C(C)NC(C)=C(C(=O)OCCN(C)Cc2ccccc2)C1c1cccc([N+](=O)[O-])c1 (stereo not shown) [MCC-13] the assay gave potency 26608 nM (inhibitor, single point). For CNCCC(Oc1ccc(C(F)(F)F)cc1)c1ccccc1 (stereo not shown) [MCC-13] the result was potency 14963 nM (inhibitor, partial curve, poor fit). With CNCCC(Oc1ccc(C(F)(F)F)cc1)c1ccccc1 (stereo not shown) [MKL-2] the assay gave potency 18837 nM (inhibitor, partial curve, poor fit). For O=C(CCCN1CCC2(CC1)C(=O)NCN2c1ccccc1)c1ccc(F)cc1 [MCC-26] the result was potency 33498 nM (inhibitor, single point). With C=CCOC(Cn1ccnc1)c1ccc(Cl)cc1Cl (stereo not shown) [MKL-2] the assay gave potency 18837 nM (inhibitor, partial curve, poor fit). Result for C=CCOC(Cn1ccnc1)c1ccc(Cl)cc1Cl (stereo not shown) [UISO] was potency 16788 nM (inhibitor, partial curve). Result for COc1cc2c(Oc3ccc4[nH]c(C)cc4c3F)ncnc2cc1OCCCN1CCCC1 [MCC-26] was potency 18654 nM (inhibitor, partial curve). Cn1cnc([N+](=O)[O-])c1Sc1ncnc2nc[nH]c12 [WaGa] gave potency 2348 nM (inhibitor, full curve).

For Cn1cnc([N+](=O)[O-])c1Sc1ncnc2nc[nH]c12 [MKL-1] the result was potency 33498 nM (inhibitor, single point). Result for Cn1cnc([N+](=O)[O-])c1Sc1ncnc2nc[nH]c12 [UISO] was potency 2114 nM (inhibitor, full curve). With Cn1cnc([N+](=O)[O-])c1Sc1ncnc2nc[nH]c12 [MCC-13] the assay gave potency 6619 nM (inhibitor, full curve). With Cn1cnc([N+](=O)[O-])c1Sc1ncnc2nc[nH]c12 [MKL-2] the assay gave potency 10593 nM (inhibitor, partial curve). With Cn1cnc([N+](=O)[O-])c1Sc1ncnc2nc[nH]c12 [MKL-2] the assay gave potency 20930 nM (inhibitor, partial curve). For Cn1cnc([N+](=O)[O-])c1Sc1ncnc2nc[nH]c12 [MCC-26] the result was potency 6619 nM (inhibitor, partial curve, poor fit). With Cn1cnc([N+](=O)[O-])c1Sc1ncnc2nc[nH]c12 [WaGa] the assay gave potency 1884 nM (inhibitor, full curve). Cn1cnc([N+](=O)[O-])c1Sc1ncnc2nc[nH]c12 [UISO] read potency 1866 nM (inhibitor, full curve).

Result for Cn1cnc([N+](=O)[O-])c1Sc1ncnc2nc[nH]c12 [UISO] was potency 1076 nM (inhibitor, full curve). Result for FC(F)(F)c1ccc(Nc2nc3ccc(Oc4ccnc(-c5ncc(C(F)(F)F)[nH]5)c4)cc3[nH]2)cc1 [MKL-1] was potency 20930 nM (inhibitor, single point). With O=S(=O)(c1ccc(Cl)cc1)c1ccc(Cl)cc1 [WaGa] the assay gave potency 69287 nM (inhibitor, single point). For O=S(=O)(c1ccc(Cl)cc1)c1ccc(Cl)cc1 [MKL-2] the result was potency 27583 nM (inhibitor, single point). CC(O)(CS(=O)(=O)c1ccc(F)cc1)C(=O)Nc1ccc(C#N)c(C(F)(F)F)c1 (stereo not shown) [MCC-26] gave potency 29565 nM (inhibitor, single point). Result for CC(O)(CS(=O)(=O)c1ccc(F)cc1)C(=O)Nc1ccc(C#N)c(C(F)(F)F)c1 (stereo not shown) [UISO] was potency 26350 nM (inhibitor, single point). With C[C@]12C/C(=C/O)C(=O)C[C@@H]1CC[C@@H]1[C@@H]2CC[C@@]2(C)[C@H]1CC[C@]2(C)O [MKL-2] the assay gave potency 23715 nM (inhibitor, partial curve, poor fit). With C[C@]12C/C(=C/O)C(=O)C[C@@H]1CC[C@@H]1[C@@H]2CC[C@@]2(C)[C@H]1CC[C@]2(C)O [WaGa] the assay gave potency 23715 nM (inhibitor, single point).

With c1ccc(CCCN2CCN(CCOC(c3ccccc3)c3ccccc3)CC2)cc1 [WaGa] the assay gave potency 20930 nM (inhibitor, partial curve). For c1ccc(CCCN2CCN(CCOC(c3ccccc3)c3ccccc3)CC2)cc1 [UISO] the result was potency 33173 nM (inhibitor, single point).

The first 4 entries again:

compound	setting	potency (nM)	remark
COC1=CC(=O)C[C@@H](C)[C@]12Oc1c(Cl)c(OC)cc(OC)c1C2=O	UISO	26608	inhibitor, single point
COC1=CC(=O)C[C@@H](C)[C@]12Oc1c(Cl)c(OC)cc(OC)c1C2=O	MKL-1	23715	inhibitor, single point
C[C@@H]1O[C@@H](O[C@@H]2C=C3CC[C@@H]4[C@@H](CC[C@]5(C)[C@H](c6ccc(=O)oc6)CC[C@@]45O)[C@@]3(C)CC2)[C@H](O)[C@H](O)[C@H]1O	MCC-26	46.9	inhibitor, full curve
C[C@@]12C(=O)OC(=O)[C@]1(C)C1CCC2O1	WaGa	1189	inhibitor, full curve

The results are deposited in PubChem (AID1296009; NCATS, 2018).